The list shows a part of the results. The main result of the screen is listed elsewhere. These columns were measured beside it and carry no call. Most of these compounds were active or inconclusive in the main read-out, so they are no random draw. Potencies come from curve fits of mixed quality, noted in brackets.

What is called AC50 is the midpoint of the concentration-response curve, whichever way the signal moves.

The experiment is described as follows: qHTS Assay for Lipid Storage Modulators in Drosophila S3 Cells.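 For cell number change: cells counted by Cell Tracker Red CMTPX staining in the red channel.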 To be noted: BODIPY lipid droplet fluorescence, 18-24 h; for cell number change: measured here: cell count max response, cells fed with added oleic acid. The method, boiled down:
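Laser-scanning cytometry quantifies lipid droplet accumulation (500–530 nm total intensity; droplet/cell object ratio) in oleic acid-fed (400 uM added) Drosophila S3 cells treated with a concentration series. 20 uM Triacsin C defined 100% inhibition.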
On the technique in general: qHTS replaces the single test concentration by a dilution series.

The mark [1] stands for this setting: measured here: lipid fluorescence (Fed channel) AC50, cells fed with added oleic acid.
The mark [2] stands for this setting: measured here: cell number channel AC50, cells fed with added oleic acid.

`O=C(O)CC1C(=O)NCCN1C/C=C/c1ccccc1` (configuration not stated): the cell number change is -19.7%. Under setting [1], the AC50 was 25.9 µM [falling, partial curve, poor fit].

On to `COc1cccc(NC(=O)COC(=O)CC(NC(N)=O)c2ccc(Cl)cc2)c1` (configuration not stated), for which the cell number change is 16.7%.

In the case of `CNC(=O)NC(=O)CSc1ncc(C(F)(F)F)cc1Cl`, the cell number change was -2.99%. Also, the AC50 under setting [1] was 0.651 µM [falling, full curve, poor fit].

For the molecule `O=C(N/N=C\c1ccc2c(c1)OCO2)c1ccc(Cn2cc(Br)c([N+](=O)[O-])n2)o1`, the cell number change was -34.9%. Also, the AC50 under setting [2] is 23.1 µM [falling, single point]. The AC50 under setting [1] was 29.1 µM [falling, single point].

On to `Cc1ccc(NC(=O)C(=O)NCC2CCCO2)cc1` (configuration not stated), for which the AC50 reads like this: under setting [2], 0.146 µM [falling, full curve, poor fit]; under setting [1], 0.146 µM [falling, full curve, poor fit].

In the case of `Cc1ccc(C)c(NC(=O)COC(=O)CCCN=C2NS(=O)(=O)c3ccccc32)c1`, the cell number change is 11.2%. Besides, the AC50 under setting [1] was 0.92 µM [rising, full curve, poor fit].

As to `CCCC(=O)C1=C(O)C(C(=O)OC)C(C)(C)CC1=Nc1ccc(N)cc1` (configuration not stated), the cell number change came out at 12.9%. The AC50 under setting [2] was 0.326 µM [rising, partial curve, poor fit]. Besides, the AC50 under setting [1] was 0.366 µM [rising, full curve, poor fit].

As to `COCCn1c(SCC(=O)N2CCCCCC2)nc2c([nH]c3ccccc32)c1=O`, the cell number change was -23.6%. Moreover, under setting [1], the AC50 was 29.1 µM [falling, single point].

For the molecule `COc1ccccc1-c1nc2ccccc2c(=O)n1O`, the cell number change turned out to be 18.4%.

On to `Cc1cccc(NS(=O)(=O)c2cc(C(=O)NCCC3=CCCCC3)ccc2Cl)c1`, for which the cell number change came to 75.7%. Under setting [2], the AC50 is 6.51 µM [falling, partial curve, poor fit].

As for `Cc1ccnc(NC(=O)CNC(=O)c2ccc3ccccc3c2)c1`, the cell number change came out at 41.6%. Under setting [2], the AC50 was 23.1 µM [rising, single point].

Consider `Cc1nc(CC(=O)O)c(-c2ccccc2)s1`, for which the cell number change is -5.55%.

As to `C=C(C)c1cccc(C(C)(C)NC(=O)N2CCCCC2CC)c1` (configuration not stated), the cell number change was 10.3%. For the same molecule, under setting [1], the AC50 is 0.146 µM [falling, full curve].

Turning to `COc1ccc(NC(=O)CSCC(=O)NCc2ccco2)cc1`, the cell number change was -50%. For the same molecule, the AC50 under setting [2] was 4.11 µM [falling, partial curve]. Further, the AC50 under setting [1] was 29.1 µM [falling, single point].

As to `O=C(CNC(=O)c1ccco1)OCC(=O)c1ccc2ccccc2c1`, the cell number change is -7.1%. Moreover, under setting [2], the AC50 was 4.61 µM [falling, single point].

Turning to `Cc1ccc(OCCOC(=O)c2nc3nccc(C)n3n2)cc1`, the cell number change came out at 15.3%.

With `CS(=O)(=O)N1CCN(c2ccccc2NC(=O)c2ccc(-c3ccc(Br)cc3)o2)CC1`, under setting [2], the AC50 was 0.58 µM [rising, single point].

In the case of `CCOC(=O)N1CCC(NC(=O)c2cc(C(=O)Nc3ccc(F)cc3F)ccc2CO)CC1`, the cell number change is -15.2%. Also, under setting [1], the AC50 was 7.31 µM [rising, single point].

With `CC(CNC(=O)c1cccc(Br)c1)n1cncn1` (configuration not stated), the cell number change worked out at 3.16%. Also, under setting [1], the AC50 is 0.651 µM [rising, single point].

In the case of `COc1ccccc1N1CCN(C(=O)c2ccc(N(C)S(=O)(=O)c3ccccc3)cc2)CC1`, the cell number change is 16.1%.

`Cc1cccc(-c2cccc(NC(=O)C3CCCN(C(=O)c4ocnc4C)C3)c2)c1` (configuration not stated): the AC50 under setting [2] is 6.51 µM [falling, single point].

Regarding `NS(=O)(=O)c1ccc(NC(=O)CSc2nc3ccccc3nc2N2CCOCC2)cc1`, the cell number change was found to be 2.59%. Also, the AC50 under setting [1] is 9.2 µM [falling, partial curve].

Consider `O=C1COc2ccc(S(=O)(=O)CCC(=O)N3CCN(c4cccc(Cl)c4)CC3)cc2N1`, for which the cell number change came out at 8.06%. For the same molecule, the AC50 under setting [1] is 3.26 µM [rising, single point].

For `COc1ccccc1NC(=O)Cc1cccs1`, the cell number change is -15.8%. Moreover, the AC50 under setting [1] is 10.3 µM [rising, partial curve].

For `COc1ccc(Br)cc1/C=N/NC(=O)C(c1ccncc1)N1CCOCC1` (configuration not stated), the cell number change was found to be 2.2%. The AC50 under setting [1] is 0.92 µM [falling, full curve, poor fit].

`O=C(NCCOc1ccccc1)c1cc2ccccc2o1`: the cell number change is -25.8%. For the same molecule, the AC50 under setting [1] is 0.146 µM [rising, full curve, poor fit].

With `COc1ccc(N2CC(C(=O)Nc3ccc(S(=O)(=O)N4CCOCC4)cc3)CC2=O)cc1` (configuration not stated), the cell number change was -24.1%. For the same molecule, the AC50 under setting [2] was 0.0184 µM [falling, full curve, poor fit]. For the same molecule, the AC50 under setting [1] is 0.13 µM [falling, full curve, poor fit].

Turning to `CCOC(=O)c1ccc(S(=O)(=O)N2CCN(C(=O)C3CSC4(C)CCC(=O)N34)CC2)cc1` (configuration not stated), the cell number change is 5.5%. Besides, the AC50 under setting [1] is 29.1 µM [rising, single point].

`CC(C)c1cccc(C(C)C)c1OC(=O)[C@H]1OC(c2ccc(Br)cc2)=C[C@@H]1c1ccc(Br)cc1`: the cell number change is -50.7%. The AC50 under setting [2] was 9.2 µM [falling, single point].

`O=C(CCNS(=O)(=O)c1ccccc1C(F)(F)F)N1CCCCCCC1`: the cell number change came to 4.03%. In addition, the AC50 under setting [1] is 8.2 µM [falling, partial curve, poor fit].

As to `COc1ccccc1OCc1ccc(C(=O)N(C)C)o1`, the AC50 under setting [1] is 0.651 µM [rising, single point].

As to `COC(=O)c1c(C)[nH]c(C(=O)CN(C)CC(=O)Nc2cccc(F)c2)c1C`, the cell number change was determined as 2.2%. Also, the AC50 under setting [1] is 16.4 µM [rising, single point].

With `CCOC(=O)NC(=O)CSc1nc2ccc(OCC)cc2[nH]1`, the cell number change was -18.4%. Also, the AC50 under setting [1] is 4.11 µM [falling, single point].

Regarding `Cc1cc(NS(=O)(=O)c2ccc(NC(=O)COc3ccc(Br)cc3)cc2)nc(C)n1`, the half-maximal activity concentration (AC50) under setting [1] was 29.1 µM [falling, single point].

Consider `CCN(CC)CCSc1nnc2c3cc(C)ccc3n(Cc3ccccc3)c2n1`, for which the cell number change came out at 5.73%.

With `COCCNC(=O)COc1ccc(Nc2ccccc2)cc1`, the cell number change amounted to 13.1%.

Regarding `Cc1cccc2c(=O)cc(C)n(Cc3ccccc3)c12`, the cell number change is -12.1%. For the same molecule, the AC50 under setting [1] is 0.731 µM [rising, full curve].

Turning to `CCOc1c2ccc(C(=O)N[C@H](C)C3CCCCC3)cc2nn1CCOC`, the cell number change is -12.2%.

Regarding `Cc1ccc(-n2[nH]c(C)c(CCC#N)c2=O)cc1`, the AC50 under setting [1] is 0.164 µM [rising, full curve, poor fit].

Take `CCC(C)Sc1nc2c(c(=O)[nH]1)C(c1cccs1)C1=C(CCCC1=O)N2` (configuration not stated): the cell number change was -49.3%. Further, the AC50 under setting [2] is 23.1 µM [falling, partial curve]. Under setting [1], the AC50 was 23.1 µM [falling, partial curve].

On to `Cc1ccc(NC(=O)c2ccc(C)cc2)cc1`, for which the cell number change was 20.2%. The AC50 under setting [1] is 29.1 µM [rising, single point].

Regarding `Cc1nc2c(C)cccc2cc1C(=O)N/N=C/c1ccc(N(C)C)cc1`, the cell number change stood at 14.7%.

In the case of `Cc1nn(CC(=O)NC2CCC(C)CC2)c(C)c1[N+](=O)[O-]` (configuration not stated), the cell number change is -4.85%. Further, the AC50 under setting [1] was 0.0651 µM [falling, full curve, poor fit].

In the case of `COc1cccc(CNC(=O)c2cccc(S(=O)(=O)N3CCN(c4ccc(F)cc4)CC3)c2)c1`, the cell number change worked out at 17.1%. The AC50 under setting [1] is 2.06 µM [rising, partial curve].

`Cc1ccc(NC(=O)CSc2nc3nc(C)cc(C)c3c(=O)[nH]2)cc1`: the cell number change was -37.4%. Besides, under setting [2], the AC50 is 29.1 µM [falling, single point].

In the case of `COc1ccc(CNC(=O)C23CC4CC(CC(Br)(C4)C2)C3)cc1`, the cell number change was determined as 13.9%. For the same molecule, under setting [1], the AC50 is 6.51 µM [rising, single point].

For `C(=C\c1nccc2c1[nH]c1ccccc12)/c1ccccc1`, the cell number change was determined as 40.3%. Also, the AC50 under setting [2] is 11.6 µM [rising, partial curve, poor fit]. Also, the AC50 under setting [1] is 29.1 µM [falling, single point].

Turning to `Cc1cccc(NC(=O)c2n[nH]c([N+](=O)[O-])c2Br)c1C`, under setting [1], the AC50 is 29.1 µM [falling, single point].

`COC(=O)/C(C#N)=C/c1c(Oc2cccc(C)c2)nc2ccccn2c1=O`: the cell number change was 5.38%. Besides, under setting [2], the AC50 was 0.326 µM [rising, single point]. In addition, the AC50 under setting [1] is 1.03 µM [rising, partial curve, poor fit].

Turning to `COc1cccc(NC(=O)c2csc3c2CCCC3)c1`, the cell number change turned out to be 45.6%. For the same molecule, the AC50 under setting [2] was 6.51 µM [falling, partial curve, poor fit]. Also, the AC50 under setting [1] is 0.103 µM [rising, full curve, poor fit].

Turning to `COc1ccc(NC(=O)c2ccco2)cc1NC(=O)c1ccc(Br)o1`, the concentration at half-maximal activity (AC50) under setting [1] was 0.259 µM [rising, partial curve, poor fit].

Consider `COC(=O)c1ccc(C(C(=O)NC2CCCCC2)N(Cc2ccccc2)C(=O)Cc2cccs2)cc1` (configuration not stated), for which the cell number change was -8.31%. Also, the AC50 under setting [1] was 0.58 µM [falling, full curve].

Regarding `Cc1cc(NC(=O)C2C3C(=O)N(Cc4ccc(Cl)cc4)C(C(=O)NC(C)(C)C)C34C=CC2(C)O4)no1` (configuration not stated), the cell number change is -24.4%. Besides, under setting [1], the AC50 is 2.91 µM [falling, full curve, poor fit].

Regarding `COc1cccc(N2CC(O)=C(c3ccccc3)C2=N)c1`, under setting [1], the AC50 was 2.31 µM [rising, partial curve].

As for `Cc1nc(SCC(=O)NCCc2ccccc2)nc(C)c1C`, the cell number change is 80.7%. Besides, the AC50 under setting [2] is 18.4 µM [rising, partial curve].

Consider `N=c1c(S(=O)(=O)c2ccc(Cl)cc2)cc2c(=O)n3ccccc3nc2n1CCc1ccccc1`, for which the cell number change was 5.84%. In addition, under setting [1], the AC50 was 1.03 µM [falling, partial curve].

Take `CCCc1cc(=O)[nH]c(SCC(=O)c2cc(C)n(C3CC3)c2C)n1`: the cell number change was 18.6%. Further, the AC50 under setting [1] is 2.91 µM [falling, partial curve].

With `O=C(O)CC1CCC(=C(Cl)Cl)C1` (configuration not stated), the cell number change was -40.6%. Moreover, the AC50 under setting [2] is 32.6 µM [falling, single point]. Besides, the AC50 under setting [1] was 0.517 µM [falling, full curve].

For the molecule `COC(=O)c1ccc(CN2C(=O)c3ccccc3S2(=O)=O)cc1`, the cell number change amounted to 0.663%. Moreover, the AC50 under setting [1] is 8.2 µM [rising, partial curve].

Regarding `CC1CC1C(=O)OCC(=O)Nc1ccccc1Oc1ccccc1` (configuration not stated), the cell number change turned out to be 145%. For the same molecule, the AC50 under setting [2] is 18.4 µM [rising, single point].

These data come from PubChem BioAssay AID2685 (National Center for Advancing Translational Sciences (NCATS), 2010).
